# Screening data, single-dose tests

Amino acid sequences for entries named in this document (tags omitted). Residues count along the entry.
UniProt I6X8D2, whole entry: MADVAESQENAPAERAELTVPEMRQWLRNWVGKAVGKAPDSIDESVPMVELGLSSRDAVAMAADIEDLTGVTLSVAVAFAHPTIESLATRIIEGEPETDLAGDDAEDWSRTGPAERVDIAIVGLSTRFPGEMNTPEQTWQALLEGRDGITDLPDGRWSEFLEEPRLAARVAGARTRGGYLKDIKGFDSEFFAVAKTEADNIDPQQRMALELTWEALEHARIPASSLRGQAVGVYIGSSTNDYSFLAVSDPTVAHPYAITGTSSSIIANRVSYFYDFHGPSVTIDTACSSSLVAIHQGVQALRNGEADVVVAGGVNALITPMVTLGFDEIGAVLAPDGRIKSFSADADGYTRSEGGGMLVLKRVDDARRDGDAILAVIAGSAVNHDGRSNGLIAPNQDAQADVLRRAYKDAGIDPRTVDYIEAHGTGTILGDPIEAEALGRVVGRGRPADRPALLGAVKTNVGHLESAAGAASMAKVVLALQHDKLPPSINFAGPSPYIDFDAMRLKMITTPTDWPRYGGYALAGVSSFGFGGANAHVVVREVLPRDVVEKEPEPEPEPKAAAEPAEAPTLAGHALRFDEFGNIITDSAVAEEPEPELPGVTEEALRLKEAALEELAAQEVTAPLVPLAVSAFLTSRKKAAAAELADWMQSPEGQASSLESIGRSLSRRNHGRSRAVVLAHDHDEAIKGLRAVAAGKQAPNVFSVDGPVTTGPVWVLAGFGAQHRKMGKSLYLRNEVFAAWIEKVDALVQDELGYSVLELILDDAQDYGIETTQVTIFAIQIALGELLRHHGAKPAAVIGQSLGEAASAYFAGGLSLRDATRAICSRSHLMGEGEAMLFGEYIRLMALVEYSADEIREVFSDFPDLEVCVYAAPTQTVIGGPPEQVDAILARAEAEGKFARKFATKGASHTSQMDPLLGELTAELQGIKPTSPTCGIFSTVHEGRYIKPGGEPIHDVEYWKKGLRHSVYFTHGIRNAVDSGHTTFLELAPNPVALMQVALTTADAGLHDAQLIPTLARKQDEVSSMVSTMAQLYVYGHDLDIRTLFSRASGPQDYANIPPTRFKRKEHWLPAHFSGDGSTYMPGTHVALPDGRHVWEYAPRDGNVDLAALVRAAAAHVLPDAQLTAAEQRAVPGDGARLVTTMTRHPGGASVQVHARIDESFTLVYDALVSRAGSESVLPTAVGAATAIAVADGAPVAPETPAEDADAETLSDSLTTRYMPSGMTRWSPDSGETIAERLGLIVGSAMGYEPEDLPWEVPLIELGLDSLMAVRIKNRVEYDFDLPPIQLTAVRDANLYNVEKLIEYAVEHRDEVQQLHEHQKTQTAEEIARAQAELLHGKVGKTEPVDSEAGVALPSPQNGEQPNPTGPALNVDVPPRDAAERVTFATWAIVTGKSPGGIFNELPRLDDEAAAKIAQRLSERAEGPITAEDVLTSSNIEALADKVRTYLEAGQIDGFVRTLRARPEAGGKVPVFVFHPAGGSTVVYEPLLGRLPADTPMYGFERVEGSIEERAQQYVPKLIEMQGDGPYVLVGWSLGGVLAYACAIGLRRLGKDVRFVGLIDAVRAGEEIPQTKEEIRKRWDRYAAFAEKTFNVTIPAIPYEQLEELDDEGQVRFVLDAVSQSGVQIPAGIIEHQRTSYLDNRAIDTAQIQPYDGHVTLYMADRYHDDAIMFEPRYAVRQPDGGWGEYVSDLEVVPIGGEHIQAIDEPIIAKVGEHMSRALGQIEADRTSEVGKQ
UniProt A4I591, 1-473: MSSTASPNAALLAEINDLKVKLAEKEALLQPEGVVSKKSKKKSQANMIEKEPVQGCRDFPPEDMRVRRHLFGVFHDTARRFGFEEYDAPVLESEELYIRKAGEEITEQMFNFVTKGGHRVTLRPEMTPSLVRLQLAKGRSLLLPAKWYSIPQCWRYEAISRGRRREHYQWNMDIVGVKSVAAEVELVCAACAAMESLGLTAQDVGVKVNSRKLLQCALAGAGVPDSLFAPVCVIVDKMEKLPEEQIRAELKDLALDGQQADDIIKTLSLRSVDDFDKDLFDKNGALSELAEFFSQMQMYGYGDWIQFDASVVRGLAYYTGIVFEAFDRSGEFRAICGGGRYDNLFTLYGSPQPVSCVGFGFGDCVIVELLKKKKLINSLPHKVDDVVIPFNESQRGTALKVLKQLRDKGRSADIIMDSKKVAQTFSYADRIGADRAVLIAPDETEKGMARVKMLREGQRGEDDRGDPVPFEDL

Source: ChEMBL document CHEMBL3988442, “University of Dundee, Small-Polar-MMV Screening Library” (2021).

Pks13 thioesterase: 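Enzyme assay of the thioesterase domain of polyketide synthase 13; the read-out is not stated. Target: Polyketide synthase Pks13, Mycobacterium tuberculosis (UniProt I6X8D2). Tested at 30 µM. The record gives no direction; the compounds picked for IC50 retests had high values, so higher reads as stronger inhibition. Size under these conditions: about 67,000 compounds, about 300 of them at 50% or above in at least one test.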
LiHisRS: 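Histidine-tRNA ligase, Leishmania infantum (UniProt A4I591). Enzyme assay of histidyl-tRNA synthetase; the read-out is not stated. Tested at 30 µM. Higher reads as stronger inhibition (inferred: compounds with an IC50 in retests scored well above the rest). The assay is labelled LdHisRS but filed under L. infantum. About 69,000 compounds were tested under these conditions; 0.6% (about 410) showed 50% or more at least once.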

The filed quantity is “Percent Effect” (%).
The controls that fix the scale are not given in the record; negative values are as filed.
Compounds were drawn at random from those tested, without regard to their results.

Result for O=C(Nc1cccc(CN2CCOC2=O)c1)N1CCCC1 was Pks13 thioesterase: -5.931%; LiHisRS: 23.46%.
Result for Cn1ccnc1CN1CCN(CCOc2cccc(C#N)c2)CC1 was Pks13 thioesterase: -10.25%; LiHisRS: 18.18%.
Result for CC(=O)N1CCOC(c2cncc(CCC(N)=O)n2)C1 (centres undefined) was Pks13 thioesterase: -1.096%; LiHisRS: 7.042%.
Result for CC(NC(=O)c1ccoc1)C(=O)N(C)Cc1cccc(C(F)(F)F)c1 (centres undefined) was Pks13 thioesterase: 28.1%; LiHisRS: -1.316%.
Result for COc1c(CNC2CCOc3ccccc32)c(C)nn1C (centres undefined) was Pks13 thioesterase: -11.48%; LiHisRS: 12.12%.
Result for O=C(c1ccncc1)N1C[C@@H]2CC[C@H](C1)N(C(=O)C1CCCC1)C2 was Pks13 thioesterase: -9.28%; LiHisRS: 25%.
Result for Cn1ncc(NC(=O)c2noc3c2CCCC3)c1C(=O)N1CCCCC1 was Pks13 thioesterase: 0.7574%; LiHisRS: 16.49%.
Result for CN(C)CC(=O)NC1CC(=O)N(CCc2ccccc2)C1 (centres undefined) was Pks13 thioesterase: 6.08%; LiHisRS: 5.747%.
Result for O=C1CCNc2cc3c(cc2CN1Cc1ccco1)OCO3 was Pks13 thioesterase: -15.26%; LiHisRS: 42.86%.
Result for CCOCCn1c(=O)n(CCC=C(C)C)c2cc(C(=O)O)cnc21 was Pks13 thioesterase: -28.97%; LiHisRS: 22.22%.
Result for NC(=O)C1CCN(CCCNC(=O)Nc2nccs2)CC1 was Pks13 thioesterase: 13.08%; LiHisRS: 20.48%.
Result for COc1ccc2c(c1)C1(CCNCC1)CC2NC1CC1 (centres undefined) was Pks13 thioesterase: -26.86%; LiHisRS: 17.12%.
Result for FC(F)(F)c1ccnc(N2CCCN(Cc3ccccn3)CC2)n1 was Pks13 thioesterase: -5.114%; LiHisRS: 29.41%.
Result for Cn1nccc1-c1cccc(CC2CCN(S(C)(=O)=O)C2)n1 (centres undefined) was Pks13 thioesterase: 7.017%; LiHisRS: 13.99%.
Result for CN(C)c1cc2c(nn1)CCN(C(=O)c1cc3c(s1)CCOC3)C2 was Pks13 thioesterase: -12.9%; LiHisRS: 14.88%.
Result for CCCOc1cc(CNC(=O)Nc2cccnc2N2CCCC2)ccn1 was Pks13 thioesterase: -3.685%; LiHisRS: 4.762%.
Result for CN(Cc1cc(-c2ccncc2)no1)Cc1nccn1C was Pks13 thioesterase: -0.7391%; LiHisRS: -2%.
Result for COCC(O)CNC(=O)Nc1ccc(Cl)cc1-n1cccc1 (centres undefined) was Pks13 thioesterase: -33.92%; LiHisRS: 14.29%.
Result for CNC(=O)[C@@H](c1ccccc1)N1CCC[C@H]1C(=O)NC1CCCCC1 was Pks13 thioesterase: -96.04%; LiHisRS: 16.67%.